PubChem BioAssay AID186 (DTP/NCI, 2004)
Shown are survivors of the treated group in tumour-free mice. Survivors were counted at the toxicity check, usually on the fifth day, unless a day is given; later deaths do not show. Schedule codes are those of the source, taken here to give the interval after Q, in days (D) or hours (H), and the number of doses after X.

Tested on: B6D2F1 mice, nontumored toxicity test, survival
Assay: NCI In Vivo Anticancer Drug Screen. Data for tumor model Nontumored Animals (Toxicity Test) in B6D2F1 (BDF1) mice
Conditions: vehicle: saline

## CCC1=C(C[C@H]2NCCc3cc(OC)c(OC)cc32)C[C@H]2c3cc(OC)c(OC)cc3CCN2C1
dose: 1.0 mg/kg/injection, schedule: Q03HX024 (ip)
  survivor count: 8 of 8
dose: 2.0 mg/kg/injection, schedule: Q03HX016 (ip)
  survivor count: 8 of 8
dose: 2.0 mg/kg/injection, schedule: Q03HX024 (ip)
  survivor count: 8 of 8
dose: 4.0 mg/kg/injection, schedule: Q01DX005 (ip)
  survivor count: 8 of 8
dose: 4.0 mg/kg/injection, schedule: Q01DX005 (sc)
  survivor count: 8 of 8
dose: 4.0 mg/kg/injection, schedule: Q01DX009 (ip)
  survivor count: 8 of 8
dose: 4.0 mg/kg/injection, schedule: Q03HX008 (ip)
  survivor count: 7 of 8
dose: 4.0 mg/kg/injection, schedule: Q03HX016 (ip)
  survivor count: 7 of 8
dose: 4.0 mg/kg/injection, schedule: Q03HX024 (ip)
  survivor count: 7 of 8
dose: 8.0 mg/kg/injection, schedule: Q01DX005 (ip)
  survivor count: 8 of 8
dose: 8.0 mg/kg/injection, schedule: Q01DX005 (oral)
  survivor count: 8 of 8
dose: 8.0 mg/kg/injection, schedule: Q01DX005 (sc)
  survivor count: 8 of 8
dose: 8.0 mg/kg/injection, schedule: Q01DX009 (ip)
  survivor count: 8 of 8
dose: 8.0 mg/kg/injection, schedule: Q03HX008 (ip)
  survivor count: 0 of 8
dose: 8.0 mg/kg/injection, schedule: Q03HX016 (ip)
  survivor count: 0 of 8
dose: 8.0 mg/kg/injection, schedule: Q03HX024 (ip)
  survivor count: 0 of 8
dose: 8.0 mg/kg/injection, schedule: Q04DX003 (ip)
  survivor count: 8 of 8
dose: 16.0 mg/kg/injection, schedule: Q01DX005 (ip)
  survivor count: 8 of 8
dose: 16.0 mg/kg/injection, schedule: Q01DX005 (oral)
  survivor count: 8 of 8
dose: 16.0 mg/kg/injection, schedule: Q01DX005 (sc)
  survivor count: 8 of 8
dose: 16.0 mg/kg/injection, schedule: Q01DX009 (ip)
  survivor count: 8 of 8
dose: 16.0 mg/kg/injection, schedule: Q03HX008 (ip)
  survivor count: 0 of 8
dose: 16.0 mg/kg/injection, schedule: Q03HX016 (ip)
  survivor count: 0 of 8
dose: 16.0 mg/kg/injection, schedule: Q03HX024 (ip)
  survivor count: 0 of 8
dose: 16.0 mg/kg/injection, schedule: Q04DX003 (ip)
  survivor count: 8 of 8
dose: 16.0 mg/kg/injection, schedule: Q08DX002 (ip)
  survivor count: 8 of 8
dose: 32.0 mg/kg/injection, schedule: Q01DX001 (ip)
  survivor count: 8 of 8
dose: 32.0 mg/kg/injection, schedule: Q01DX001 (sc)
  survivor count: 7 of 8
dose: 32.0 mg/kg/injection, schedule: Q01DX005 (ip)
  survivor count: 0 of 8
dose: 32.0 mg/kg/injection, schedule: Q01DX005 (oral)
  survivor count: 2 of 8
dose: 32.0 mg/kg/injection, schedule: Q01DX005 (sc)
  survivor count: 3 of 8
dose: 32.0 mg/kg/injection, schedule: Q01DX009 (ip)
  survivor count: 0 of 8
dose: 32.0 mg/kg/injection, schedule: Q03HX008 (ip)
  survivor count: 0 of 8
dose: 32.0 mg/kg/injection, schedule: Q03HX016 (ip)
  survivor count: 0 of 8
dose: 32.0 mg/kg/injection, schedule: Q04DX003 (ip)
  survivor count: 8 of 8
dose: 32.0 mg/kg/injection, schedule: Q08DX002 (ip)
  survivor count: 8 of 8
dose: 64.0 mg/kg/injection, schedule: Q01DX001 (ip)
  survivor count: 4 of 8
dose: 64.0 mg/kg/injection, schedule: Q01DX001 (oral)
  survivor count: 4 of 8
dose: 64.0 mg/kg/injection, schedule: Q01DX001 (sc)
  survivor count: 2 of 8
dose: 64.0 mg/kg/injection, schedule: Q01DX005 (ip)
  survivor count: 0 of 8
dose: 64.0 mg/kg/injection, schedule: Q01DX005 (oral)
  survivor count: 0 of 8
dose: 64.0 mg/kg/injection, schedule: Q01DX005 (sc)
  survivor count: 0 of 8
dose: 64.0 mg/kg/injection, schedule: Q04DX003 (ip)
  survivor count: 2 of 8
dose: 64.0 mg/kg/injection, schedule: Q08DX002 (ip)
  survivor count: 2 of 8
dose: 128.0 mg/kg/injection, schedule: Q01DX001 (ip)
  survivor count: 0 of 8
dose: 128.0 mg/kg/injection, schedule: Q01DX001 (oral)
  survivor count: 0 of 8
dose: 128.0 mg/kg/injection, schedule: Q01DX001 (sc)
  survivor count: 3 of 8
dose: 128.0 mg/kg/injection, schedule: Q01DX005 (oral)
  survivor count: 0 of 8
dose: 128.0 mg/kg/injection, schedule: Q04DX003 (ip)
  survivor count: 0 of 8
dose: 128.0 mg/kg/injection, schedule: Q08DX002 (ip)
  survivor count: 0 of 8
dose: 256.0 mg/kg/injection, schedule: Q01DX001 (ip)
  survivor count: 0 of 8
dose: 256.0 mg/kg/injection, schedule: Q01DX001 (oral)
  survivor count: 0 of 8
dose: 256.0 mg/kg/injection, schedule: Q01DX001 (sc)
  survivor count: 1 of 8
dose: 256.0 mg/kg/injection, schedule: Q08DX002 (ip)
  survivor count: 0 of 8
dose: 512.0 mg/kg/injection, schedule: Q01DX001 (oral)
  survivor count: 0 of 8
dose: 512.0 mg/kg/injection, schedule: Q01DX001 (sc)
  survivor count: 0 of 8
dose: 1024.0 mg/kg/injection, schedule: Q01DX001 (oral)
  survivor count: 0 of 8
